In publication doi:10.1101/2025.01.10.632391 one finds binding data, which are given here for one substance.

This assay deals with T1, angiopoietin-like 6 (ANGPTL6) (UniProt Q8NI99).
T1 sequence: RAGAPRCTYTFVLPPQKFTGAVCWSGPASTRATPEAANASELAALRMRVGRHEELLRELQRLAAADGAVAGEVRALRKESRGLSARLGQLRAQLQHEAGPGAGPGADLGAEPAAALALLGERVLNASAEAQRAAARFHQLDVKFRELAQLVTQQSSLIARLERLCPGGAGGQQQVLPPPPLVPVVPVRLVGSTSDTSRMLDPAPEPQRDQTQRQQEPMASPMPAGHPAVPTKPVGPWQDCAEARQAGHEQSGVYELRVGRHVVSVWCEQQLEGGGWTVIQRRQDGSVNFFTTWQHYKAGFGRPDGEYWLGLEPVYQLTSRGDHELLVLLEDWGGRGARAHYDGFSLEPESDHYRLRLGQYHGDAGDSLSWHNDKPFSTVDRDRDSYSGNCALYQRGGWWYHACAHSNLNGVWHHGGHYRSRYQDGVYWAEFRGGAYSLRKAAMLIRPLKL
Kind of assay: SPR. Background: Surface plasmon resonance follows binding to a sensor surface in real time, without labels.

These are yes or no findings as the source states them, for the method shown.

Turning to fibronectin, the binding result is recorded as “no binding (tested: up to 1000 nM)”.
